The target of assay [1] is GST:Weel^70 (Schizosaccharomyces pombe). Put plainly: GSH-Sepharose pull-down from S. pombe lysates, assay of associated kinase activity.
The target is the same in assay [2]. Nature of the assay: GSH-Sepharose pull-down and kinase assays.

These are yes or no findings as the source states them, for the method shown. Binding seen in cells or lysates may run through a third protein. Some entries that bind do so weakly or less than the wild type.

B1: Cds1 (enzyme, Schizosaccharomyces pombe, UniProt Q09170 1-460, looked up)
chain: MEEPEEATQATQEAPLHVSQNIAKQVVNNENVFMKLVMTRMLDGKTEVIPLTTDVHNGFWRFGRHKSCEVVLNGPRVSNFHFEIYQGHRNDSDESENVVFLHDHSSNGTFLNFERLAKNSRTILSNGDEIRIGLGVPKDEISFLCQVPVKHSRDSQKNMIKSENSHYEIIRTLGSGTFAVVKLAVEVNSGKWYAIKIINKRKILLTSSEKRATEMFQREIDILKSLHHPGVVQCHEIFENDDELFIVMEYVEGGDLMDFLIANGSIDEQDCKPLLKQLLETLLHLHKQGVTHRDIKPENILITNDFHLKISDFGLAKVIHGTGTFLETFCGTMGYLAPEVLKSKNVNLDGGYDDKVDIWSLGCVLYVMLTASIPFASSSQAKCIELISKGAYPIEPLLENEISEEGIDLINRMLEINPEKRISESEALQHPWFYTVSTHEHRTPPSSSEHEATEQLNSSS
With B1, the binding entry in assay [1] and in assay [2] was “binds” in each case.

The values above are taken from US20030216563A1.
